No constants are given. Whether binding was seen depends on the method and setting. In cells and extracts the contact can be indirect.
Biological target: CD44s (UniProt P16070)
Assay: proximity ligation; COS-7 cells transfected with TrkA (wild type or H112A) and a CD44 isoform or deletion mutant; NGF 100 ng/ml for 0, 5 and 30 min; fixed cells; rabbit anti-TrkA and mouse anti-CD44 antibodies

Sequences of proteins named here, by UniProt entry; tags and fusion partners are left off. A change or cut given only in a name is not applied to a line headed by its entry. A line that says so, or that is headed by a name, gives the form on record, which may keep a tag or linker. Residues count along the entry.
CD44s (P16070, form named): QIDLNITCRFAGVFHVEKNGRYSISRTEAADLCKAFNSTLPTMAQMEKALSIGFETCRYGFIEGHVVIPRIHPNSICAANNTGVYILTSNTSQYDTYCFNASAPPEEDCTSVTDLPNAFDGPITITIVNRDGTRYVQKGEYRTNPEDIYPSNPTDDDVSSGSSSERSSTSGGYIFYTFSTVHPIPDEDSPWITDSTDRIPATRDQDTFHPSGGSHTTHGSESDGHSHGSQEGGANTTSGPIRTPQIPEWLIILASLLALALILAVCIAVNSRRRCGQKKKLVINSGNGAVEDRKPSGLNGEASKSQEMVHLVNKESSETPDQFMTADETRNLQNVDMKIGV
UniProt P04629, residues 33-796: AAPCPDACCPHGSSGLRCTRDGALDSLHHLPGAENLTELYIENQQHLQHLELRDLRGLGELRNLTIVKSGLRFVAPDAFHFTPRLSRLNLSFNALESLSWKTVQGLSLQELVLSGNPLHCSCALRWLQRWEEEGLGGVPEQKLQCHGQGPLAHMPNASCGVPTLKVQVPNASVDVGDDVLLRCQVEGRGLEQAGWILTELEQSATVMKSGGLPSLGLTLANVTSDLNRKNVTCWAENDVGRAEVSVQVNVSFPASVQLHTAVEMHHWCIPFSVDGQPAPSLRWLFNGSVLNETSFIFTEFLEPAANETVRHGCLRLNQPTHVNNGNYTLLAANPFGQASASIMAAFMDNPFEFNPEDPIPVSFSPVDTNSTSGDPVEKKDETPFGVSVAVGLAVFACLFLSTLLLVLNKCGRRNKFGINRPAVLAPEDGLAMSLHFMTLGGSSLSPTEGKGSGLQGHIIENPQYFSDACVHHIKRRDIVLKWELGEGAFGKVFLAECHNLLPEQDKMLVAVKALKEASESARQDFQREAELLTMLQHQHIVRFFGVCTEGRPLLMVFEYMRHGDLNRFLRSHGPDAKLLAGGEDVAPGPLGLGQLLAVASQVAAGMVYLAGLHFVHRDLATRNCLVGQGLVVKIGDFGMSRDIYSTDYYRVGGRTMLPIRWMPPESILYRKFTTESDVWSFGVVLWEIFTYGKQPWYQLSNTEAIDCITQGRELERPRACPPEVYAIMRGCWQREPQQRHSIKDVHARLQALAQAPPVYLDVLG

TrkA wild type (from UniProt P04629 33-796) (receptor)
binding: no binding

Reference: paper PMC8962522, “Direct interaction of TrkA/CD44v3 is essential for NGF-promoted aggressiveness of breast cancer cells” (Journal of Experimental & Clinical Cancer Research : CR, 2022)
